{"source": "PubChem BioAssay AID1224831 (NIAID, 2016)", "test": "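Retesting screen hits on the TLR4-driven TNF response with six separate siRNAs each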 (follow-up of hits)", "cell system": "human THP-1 B5 monocytic leukaemia cells carrying a TNF promoter luciferase reporter, made macrophage-like with PMA", "reagent": "single siRNA against human genes, 50 nM", "timing": "about 68 h of knock-down, then 4 h LPS", "conditions": "LPS (Salmonella minnesota, TLR-grade) at 10 ng/ml for 4 h; PMA 5 ng/ml present during knock-down", "detection": "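TNF promoter reporter read as dual luciferase ratio after 4 h LPS, normalised per plate to its median, given as replicate mean robust z-score per siRNA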", "direction": "TNF reporter z-score: higher = stronger LPS-induced TNF reporter signal; z-score, median over gene's siRNAs: higher = stronger TNF reporter signal across the gene's siRNAs", "call rule": "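Active when the replicate mean z-score is about -1 or lower, or about 1.5 or higher; lowered and raised TNF reporter signal both count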", "calls": "active = changed TNF reporter (either direction); inactive = little change", "note": "The deposit covers about 3,500 reagents; shown is a random part of them. 731 of all reagents (21%) were called active. 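Active means either lowered or raised reporter signal; the gene-median score did not drive the per-siRNA calls.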 Unmarked entries are inactive. Reagents against one gene are numbered here."}
{"gene": "RCN3", "reagent": 1, "TNF reporter z-score, replicate mean": "2.09 (active)", "z-score, median over gene's siRNAs": 0.34}
{"gene": "RCN3", "reagent": 2, "TNF reporter z-score, replicate mean": 0.21, "z-score, median over gene's siRNAs": 0.34}
{"gene": "RCN3", "reagent": 3, "TNF reporter z-score, replicate mean": 0.18, "z-score, median over gene's siRNAs": 0.34}
{"gene": "RCN3", "reagent": 4, "TNF reporter z-score, replicate mean": 0.13, "z-score, median over gene's siRNAs": 0.34}
{"gene": "RCN3", "reagent": 5, "TNF reporter z-score, replicate mean": 0.47, "z-score, median over gene's siRNAs": 0.34}
{"gene": "RCN3", "reagent": 6, "TNF reporter z-score, replicate mean": 0.84, "z-score, median over gene's siRNAs": 0.34}
{"gene": "ALG10B", "reagent": 1, "TNF reporter z-score, replicate mean": 1.08, "z-score, median over gene's siRNAs": 0.255}
{"gene": "ALG10B", "reagent": 2, "TNF reporter z-score, replicate mean": -0.42, "z-score, median over gene's siRNAs": 0.255}
{"gene": "ALG10B", "reagent": 3, "TNF reporter z-score, replicate mean": 0.89, "z-score, median over gene's siRNAs": 0.255}
{"gene": "ALG10B", "reagent": 4, "TNF reporter z-score, replicate mean": 0.13, "z-score, median over gene's siRNAs": 0.255}
{"gene": "ALG10B", "reagent": 5, "TNF reporter z-score, replicate mean": -0.16, "z-score, median over gene's siRNAs": 0.255}
{"gene": "ALG10B", "reagent": 6, "TNF reporter z-score, replicate mean": 0.38, "z-score, median over gene's siRNAs": 0.255}
{"gene": "CLEC4A", "reagent": 1, "TNF reporter z-score, replicate mean": -0.61, "z-score, median over gene's siRNAs": 0.03}
{"gene": "CLEC4A", "reagent": 2, "TNF reporter z-score, replicate mean": -0.22, "z-score, median over gene's siRNAs": 0.03}
{"gene": "CLEC4A", "reagent": 3, "TNF reporter z-score, replicate mean": "1.8 (active)", "z-score, median over gene's siRNAs": 0.03}
{"gene": "CLEC4A", "reagent": 4, "TNF reporter z-score, replicate mean": 0.28, "z-score, median over gene's siRNAs": 0.03}
{"gene": "CLEC4A", "reagent": 5, "TNF reporter z-score, replicate mean": -0.51, "z-score, median over gene's siRNAs": 0.03}
{"gene": "CLEC4A", "reagent": 6, "TNF reporter z-score, replicate mean": "3.95 (active)", "z-score, median over gene's siRNAs": 0.03}
{"gene": "MED21", "reagent": 1, "TNF reporter z-score, replicate mean": "-1.01 (active)", "z-score, median over gene's siRNAs": -0.475}
{"gene": "MED21", "reagent": 2, "TNF reporter z-score, replicate mean": -0.11, "z-score, median over gene's siRNAs": -0.475}
{"gene": "MED21", "reagent": 3, "TNF reporter z-score, replicate mean": -0.36, "z-score, median over gene's siRNAs": -0.475}
{"gene": "MED21", "reagent": 4, "TNF reporter z-score, replicate mean": -0.42, "z-score, median over gene's siRNAs": -0.475}
{"gene": "MED21", "reagent": 5, "TNF reporter z-score, replicate mean": "-1.18 (active)", "z-score, median over gene's siRNAs": -0.475}
{"gene": "MED21", "reagent": 6, "TNF reporter z-score, replicate mean": -0.53, "z-score, median over gene's siRNAs": -0.475}

4 entries from above, reduced to “TNF reporter z-score, replicate mean”:
MED21 #3	-0.36
MED21 #4	-0.42
MED21 #5	-1.18 (active)
MED21 #6	-0.53

Additional results follow:
{"gene": "GINS2", "reagent": 1, "TNF reporter z-score, replicate mean": 1.42, "z-score, median over gene's siRNAs": 0.7}
{"gene": "GINS2", "reagent": 2, "TNF reporter z-score, replicate mean": 0.12, "z-score, median over gene's siRNAs": 0.7}
{"gene": "GINS2", "reagent": 3, "TNF reporter z-score, replicate mean": 0.73, "z-score, median over gene's siRNAs": 0.7}
{"gene": "GINS2", "reagent": 4, "TNF reporter z-score, replicate mean": 1.06, "z-score, median over gene's siRNAs": 0.7}
{"gene": "GINS2", "reagent": 5, "TNF reporter z-score, replicate mean": -0.61, "z-score, median over gene's siRNAs": 0.7}
{"gene": "GINS2", "reagent": 6, "TNF reporter z-score, replicate mean": 0.67, "z-score, median over gene's siRNAs": 0.7}
{"gene": "PLSCR2", "reagent": 1, "TNF reporter z-score, replicate mean": -0.18, "z-score, median over gene's siRNAs": 0.145}
{"gene": "PLSCR2", "reagent": 2, "TNF reporter z-score, replicate mean": 0.79, "z-score, median over gene's siRNAs": 0.145}
{"gene": "PLSCR2", "reagent": 3, "TNF reporter z-score, replicate mean": -0.8, "z-score, median over gene's siRNAs": 0.145}
{"gene": "PLSCR2", "reagent": 4, "TNF reporter z-score, replicate mean": "2.87 (active)", "z-score, median over gene's siRNAs": 0.145}
{"gene": "PLSCR2", "reagent": 5, "TNF reporter z-score, replicate mean": 0.29, "z-score, median over gene's siRNAs": 0.145}
{"gene": "PLSCR2", "reagent": 6, "TNF reporter z-score, replicate mean": 0, "z-score, median over gene's siRNAs": 0.145}
{"gene": "NTF4", "reagent": 1, "TNF reporter z-score, replicate mean": 0.62, "z-score, median over gene's siRNAs": 0.64}
{"gene": "NTF4", "reagent": 2, "TNF reporter z-score, replicate mean": -0.05, "z-score, median over gene's siRNAs": 0.64}
{"gene": "NTF4", "reagent": 3, "TNF reporter z-score, replicate mean": 1.15, "z-score, median over gene's siRNAs": 0.64}
{"gene": "NTF4", "reagent": 4, "TNF reporter z-score, replicate mean": "2.27 (active)", "z-score, median over gene's siRNAs": 0.64}
{"gene": "NTF4", "reagent": 5, "TNF reporter z-score, replicate mean": 0.66, "z-score, median over gene's siRNAs": 0.64}
{"gene": "NTF4", "reagent": 6, "TNF reporter z-score, replicate mean": 0.16, "z-score, median over gene's siRNAs": 0.64}
{"gene": "ZNF567", "reagent": 1, "TNF reporter z-score, replicate mean": -0.34, "z-score, median over gene's siRNAs": -0.07}
{"gene": "ZNF567", "reagent": 2, "TNF reporter z-score, replicate mean": 0.29, "z-score, median over gene's siRNAs": -0.07}
{"gene": "ZNF567", "reagent": 3, "TNF reporter z-score, replicate mean": "1.55 (active)", "z-score, median over gene's siRNAs": -0.07}
{"gene": "ZNF567", "reagent": 4, "TNF reporter z-score, replicate mean": -0.81, "z-score, median over gene's siRNAs": -0.07}
{"gene": "ZNF567", "reagent": 5, "TNF reporter z-score, replicate mean": -0.95, "z-score, median over gene's siRNAs": -0.07}
{"gene": "ZNF567", "reagent": 6, "TNF reporter z-score, replicate mean": 0.2, "z-score, median over gene's siRNAs": -0.07}
{"gene": "EIF2S2", "reagent": 1, "TNF reporter z-score, replicate mean": "-1.26 (active)", "z-score, median over gene's siRNAs": -0.245}
{"gene": "EIF2S2", "reagent": 2, "TNF reporter z-score, replicate mean": "-1.41 (active)", "z-score, median over gene's siRNAs": -0.245}
{"gene": "EIF2S2", "reagent": 3, "TNF reporter z-score, replicate mean": -0.09, "z-score, median over gene's siRNAs": -0.245}
{"gene": "EIF2S2", "reagent": 4, "TNF reporter z-score, replicate mean": "6.18 (active)", "z-score, median over gene's siRNAs": -0.245}
{"gene": "EIF2S2", "reagent": 5, "TNF reporter z-score, replicate mean": -0.4, "z-score, median over gene's siRNAs": -0.245}
{"gene": "EIF2S2", "reagent": 6, "TNF reporter z-score, replicate mean": 0.73, "z-score, median over gene's siRNAs": -0.245}
